Results are given in words; binding and its absence hold for the method and conditions named. Binding seen in cells or lysates may run through a third protein. Some binding calls cover weakened binding; strength is not graded here.
Target: T1, CD99 (human (endogenous in SU-DIPG04, HSJD-DIPG007, SU-DIPGXIII)) (UniProt P14209)
T1 sequence: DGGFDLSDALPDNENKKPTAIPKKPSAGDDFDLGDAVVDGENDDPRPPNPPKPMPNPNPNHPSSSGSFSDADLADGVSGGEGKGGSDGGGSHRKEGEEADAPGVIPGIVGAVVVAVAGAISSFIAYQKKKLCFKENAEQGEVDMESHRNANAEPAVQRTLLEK
Assay: co-IP

Sequences of proteins named here, by UniProt entry; tags and fusion partners are left off.
UniProt Q13418: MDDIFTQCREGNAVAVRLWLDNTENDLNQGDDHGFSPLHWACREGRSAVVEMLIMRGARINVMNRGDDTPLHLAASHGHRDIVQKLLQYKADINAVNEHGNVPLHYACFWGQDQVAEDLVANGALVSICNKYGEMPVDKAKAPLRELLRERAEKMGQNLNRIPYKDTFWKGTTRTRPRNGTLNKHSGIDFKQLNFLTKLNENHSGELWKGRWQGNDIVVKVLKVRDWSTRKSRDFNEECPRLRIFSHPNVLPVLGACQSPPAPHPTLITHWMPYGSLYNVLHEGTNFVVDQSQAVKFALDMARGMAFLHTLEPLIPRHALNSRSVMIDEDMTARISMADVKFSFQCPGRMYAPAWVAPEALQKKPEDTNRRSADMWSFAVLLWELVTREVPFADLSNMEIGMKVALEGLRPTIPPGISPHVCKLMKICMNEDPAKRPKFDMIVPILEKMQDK

integrin-linked kinase-1 (ILK1) (from UniProt Q13418 1-452) (enzyme)
binding: binds

Source: doi:10.1101/2024.03.19.585814
